According to the supplement of paper PMC10849652:
The list shows a part of the results.

By UniProt entry, the sequences of proteins in these tests, tags left out. Where a name states a change or a piece, a line headed by the entry shows the natural chain unless it says otherwise.
UniProt O60732: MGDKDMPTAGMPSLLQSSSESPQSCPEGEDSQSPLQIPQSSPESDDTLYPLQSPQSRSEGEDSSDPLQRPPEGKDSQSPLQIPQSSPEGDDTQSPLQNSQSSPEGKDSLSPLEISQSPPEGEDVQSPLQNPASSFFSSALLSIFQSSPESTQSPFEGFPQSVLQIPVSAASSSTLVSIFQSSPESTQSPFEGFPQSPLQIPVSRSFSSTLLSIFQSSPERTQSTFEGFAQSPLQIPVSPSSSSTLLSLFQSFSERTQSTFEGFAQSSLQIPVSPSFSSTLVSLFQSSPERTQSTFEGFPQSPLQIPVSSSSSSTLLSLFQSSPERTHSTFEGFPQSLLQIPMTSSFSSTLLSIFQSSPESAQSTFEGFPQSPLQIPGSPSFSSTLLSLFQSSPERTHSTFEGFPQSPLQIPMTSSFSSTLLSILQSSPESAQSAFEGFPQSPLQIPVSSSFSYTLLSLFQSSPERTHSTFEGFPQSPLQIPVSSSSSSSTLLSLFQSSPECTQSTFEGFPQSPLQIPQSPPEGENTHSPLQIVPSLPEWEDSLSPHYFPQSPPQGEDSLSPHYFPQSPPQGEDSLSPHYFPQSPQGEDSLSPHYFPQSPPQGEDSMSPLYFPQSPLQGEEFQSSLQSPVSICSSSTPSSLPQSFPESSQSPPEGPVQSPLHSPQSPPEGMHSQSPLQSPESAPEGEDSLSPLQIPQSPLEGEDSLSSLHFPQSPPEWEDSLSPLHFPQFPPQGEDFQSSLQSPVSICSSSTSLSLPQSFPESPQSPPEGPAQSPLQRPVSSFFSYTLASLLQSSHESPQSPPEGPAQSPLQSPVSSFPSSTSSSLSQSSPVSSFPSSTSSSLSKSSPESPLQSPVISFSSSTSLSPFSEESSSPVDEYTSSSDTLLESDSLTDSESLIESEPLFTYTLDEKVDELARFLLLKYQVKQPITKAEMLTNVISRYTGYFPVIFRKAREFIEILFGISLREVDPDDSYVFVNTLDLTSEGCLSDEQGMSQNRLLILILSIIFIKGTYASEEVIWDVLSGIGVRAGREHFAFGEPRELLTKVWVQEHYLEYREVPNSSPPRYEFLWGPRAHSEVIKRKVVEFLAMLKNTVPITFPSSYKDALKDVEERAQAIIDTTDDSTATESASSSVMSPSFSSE
UniProt Q8IWT6: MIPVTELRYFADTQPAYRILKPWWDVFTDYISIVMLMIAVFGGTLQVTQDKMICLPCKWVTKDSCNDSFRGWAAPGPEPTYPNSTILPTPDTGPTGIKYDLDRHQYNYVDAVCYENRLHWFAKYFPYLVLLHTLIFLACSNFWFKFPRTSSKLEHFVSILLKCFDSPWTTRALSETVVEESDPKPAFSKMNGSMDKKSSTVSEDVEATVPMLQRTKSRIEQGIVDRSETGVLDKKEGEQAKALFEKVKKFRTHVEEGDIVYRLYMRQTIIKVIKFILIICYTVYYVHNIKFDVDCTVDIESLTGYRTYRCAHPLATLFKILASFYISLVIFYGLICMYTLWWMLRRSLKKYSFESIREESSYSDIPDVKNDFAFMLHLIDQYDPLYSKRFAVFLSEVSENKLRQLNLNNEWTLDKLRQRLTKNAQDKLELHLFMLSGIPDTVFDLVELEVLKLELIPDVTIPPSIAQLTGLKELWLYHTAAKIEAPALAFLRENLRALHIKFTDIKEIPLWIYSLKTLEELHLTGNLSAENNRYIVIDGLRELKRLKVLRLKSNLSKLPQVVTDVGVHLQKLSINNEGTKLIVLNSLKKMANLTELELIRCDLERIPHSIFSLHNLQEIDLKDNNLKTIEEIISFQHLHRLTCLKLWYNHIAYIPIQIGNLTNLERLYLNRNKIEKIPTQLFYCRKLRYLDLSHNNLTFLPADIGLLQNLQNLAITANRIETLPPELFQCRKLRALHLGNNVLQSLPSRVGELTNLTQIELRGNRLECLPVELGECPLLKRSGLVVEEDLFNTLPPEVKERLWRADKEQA
UniProt Q7L1W4: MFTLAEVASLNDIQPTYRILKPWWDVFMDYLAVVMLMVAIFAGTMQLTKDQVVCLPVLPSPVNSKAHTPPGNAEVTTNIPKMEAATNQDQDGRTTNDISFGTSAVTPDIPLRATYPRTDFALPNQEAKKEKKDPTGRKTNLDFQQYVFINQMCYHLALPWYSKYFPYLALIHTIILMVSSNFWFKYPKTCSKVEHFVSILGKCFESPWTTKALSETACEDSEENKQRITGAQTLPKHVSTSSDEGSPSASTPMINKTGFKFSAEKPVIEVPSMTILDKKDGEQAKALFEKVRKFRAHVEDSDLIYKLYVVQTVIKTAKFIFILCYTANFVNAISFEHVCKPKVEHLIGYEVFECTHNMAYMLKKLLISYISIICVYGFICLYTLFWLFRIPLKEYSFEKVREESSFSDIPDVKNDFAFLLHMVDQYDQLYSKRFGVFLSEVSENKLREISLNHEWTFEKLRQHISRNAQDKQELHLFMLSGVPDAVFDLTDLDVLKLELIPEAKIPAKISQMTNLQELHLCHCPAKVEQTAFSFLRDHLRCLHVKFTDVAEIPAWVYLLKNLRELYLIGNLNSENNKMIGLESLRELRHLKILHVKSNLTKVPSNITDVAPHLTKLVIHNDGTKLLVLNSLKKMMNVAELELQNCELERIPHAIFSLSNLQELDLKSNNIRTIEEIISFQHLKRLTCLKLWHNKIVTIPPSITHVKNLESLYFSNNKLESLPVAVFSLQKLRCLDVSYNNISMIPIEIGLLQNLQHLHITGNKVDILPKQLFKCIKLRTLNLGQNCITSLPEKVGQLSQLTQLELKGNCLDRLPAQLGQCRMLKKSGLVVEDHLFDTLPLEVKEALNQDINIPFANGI
UniProt P07948: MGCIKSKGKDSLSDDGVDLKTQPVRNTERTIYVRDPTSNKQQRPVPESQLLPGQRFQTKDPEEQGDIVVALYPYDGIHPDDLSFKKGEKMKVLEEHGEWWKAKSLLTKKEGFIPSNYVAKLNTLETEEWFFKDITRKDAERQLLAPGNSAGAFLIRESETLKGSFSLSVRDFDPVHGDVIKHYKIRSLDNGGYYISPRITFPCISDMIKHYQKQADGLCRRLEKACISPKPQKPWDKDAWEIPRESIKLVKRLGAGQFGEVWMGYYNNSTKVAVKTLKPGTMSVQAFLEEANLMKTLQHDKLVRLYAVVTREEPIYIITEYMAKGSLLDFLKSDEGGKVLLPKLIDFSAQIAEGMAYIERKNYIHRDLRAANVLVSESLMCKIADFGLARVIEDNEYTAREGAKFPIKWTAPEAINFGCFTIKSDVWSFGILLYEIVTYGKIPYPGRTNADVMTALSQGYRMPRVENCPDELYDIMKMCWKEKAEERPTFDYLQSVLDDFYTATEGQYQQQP
UniProt Q9H089: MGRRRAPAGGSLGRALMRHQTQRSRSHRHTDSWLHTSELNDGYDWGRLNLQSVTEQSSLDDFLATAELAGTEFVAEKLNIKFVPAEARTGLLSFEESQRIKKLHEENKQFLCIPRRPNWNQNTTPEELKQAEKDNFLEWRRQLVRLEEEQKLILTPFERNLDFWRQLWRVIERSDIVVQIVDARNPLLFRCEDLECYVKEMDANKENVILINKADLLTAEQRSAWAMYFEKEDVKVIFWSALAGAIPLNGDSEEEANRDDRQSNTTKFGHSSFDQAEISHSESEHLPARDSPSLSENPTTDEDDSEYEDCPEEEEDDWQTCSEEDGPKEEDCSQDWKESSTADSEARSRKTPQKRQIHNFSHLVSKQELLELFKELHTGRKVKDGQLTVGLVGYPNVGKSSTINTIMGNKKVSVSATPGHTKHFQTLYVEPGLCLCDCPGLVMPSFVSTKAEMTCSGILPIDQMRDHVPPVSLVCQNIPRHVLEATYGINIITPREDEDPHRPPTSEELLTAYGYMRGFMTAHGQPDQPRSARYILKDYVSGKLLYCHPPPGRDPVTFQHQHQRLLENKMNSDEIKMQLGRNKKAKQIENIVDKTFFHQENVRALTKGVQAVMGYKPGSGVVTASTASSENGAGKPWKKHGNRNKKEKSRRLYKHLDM
UniProt Q66K74: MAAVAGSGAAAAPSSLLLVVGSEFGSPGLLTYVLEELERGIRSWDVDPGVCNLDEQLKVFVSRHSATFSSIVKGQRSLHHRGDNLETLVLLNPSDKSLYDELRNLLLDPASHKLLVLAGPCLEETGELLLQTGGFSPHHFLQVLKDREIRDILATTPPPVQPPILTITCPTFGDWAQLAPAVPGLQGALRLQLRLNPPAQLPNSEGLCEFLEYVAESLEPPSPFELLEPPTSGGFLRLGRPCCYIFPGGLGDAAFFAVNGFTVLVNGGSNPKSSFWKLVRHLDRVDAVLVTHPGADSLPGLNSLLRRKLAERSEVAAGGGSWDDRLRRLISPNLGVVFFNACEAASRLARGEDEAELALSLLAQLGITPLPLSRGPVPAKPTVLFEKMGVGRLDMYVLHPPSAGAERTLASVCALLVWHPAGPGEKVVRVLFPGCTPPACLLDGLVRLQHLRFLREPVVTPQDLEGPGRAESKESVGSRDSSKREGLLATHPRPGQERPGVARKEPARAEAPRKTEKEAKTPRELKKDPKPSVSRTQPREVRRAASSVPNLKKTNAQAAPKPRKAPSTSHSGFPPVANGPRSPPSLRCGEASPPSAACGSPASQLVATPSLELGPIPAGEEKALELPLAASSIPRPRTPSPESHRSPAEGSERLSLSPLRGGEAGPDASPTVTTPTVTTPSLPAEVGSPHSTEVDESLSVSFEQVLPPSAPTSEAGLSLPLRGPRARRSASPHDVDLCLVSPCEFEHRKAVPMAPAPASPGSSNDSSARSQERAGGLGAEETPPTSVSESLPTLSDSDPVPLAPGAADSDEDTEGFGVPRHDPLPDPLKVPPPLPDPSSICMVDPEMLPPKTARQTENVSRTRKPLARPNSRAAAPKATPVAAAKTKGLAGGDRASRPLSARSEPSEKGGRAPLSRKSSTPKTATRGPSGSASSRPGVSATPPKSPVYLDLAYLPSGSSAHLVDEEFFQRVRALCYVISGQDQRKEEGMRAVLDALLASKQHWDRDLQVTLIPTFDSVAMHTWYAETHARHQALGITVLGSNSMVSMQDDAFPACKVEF
UniProt P10636, whole entry, looked up: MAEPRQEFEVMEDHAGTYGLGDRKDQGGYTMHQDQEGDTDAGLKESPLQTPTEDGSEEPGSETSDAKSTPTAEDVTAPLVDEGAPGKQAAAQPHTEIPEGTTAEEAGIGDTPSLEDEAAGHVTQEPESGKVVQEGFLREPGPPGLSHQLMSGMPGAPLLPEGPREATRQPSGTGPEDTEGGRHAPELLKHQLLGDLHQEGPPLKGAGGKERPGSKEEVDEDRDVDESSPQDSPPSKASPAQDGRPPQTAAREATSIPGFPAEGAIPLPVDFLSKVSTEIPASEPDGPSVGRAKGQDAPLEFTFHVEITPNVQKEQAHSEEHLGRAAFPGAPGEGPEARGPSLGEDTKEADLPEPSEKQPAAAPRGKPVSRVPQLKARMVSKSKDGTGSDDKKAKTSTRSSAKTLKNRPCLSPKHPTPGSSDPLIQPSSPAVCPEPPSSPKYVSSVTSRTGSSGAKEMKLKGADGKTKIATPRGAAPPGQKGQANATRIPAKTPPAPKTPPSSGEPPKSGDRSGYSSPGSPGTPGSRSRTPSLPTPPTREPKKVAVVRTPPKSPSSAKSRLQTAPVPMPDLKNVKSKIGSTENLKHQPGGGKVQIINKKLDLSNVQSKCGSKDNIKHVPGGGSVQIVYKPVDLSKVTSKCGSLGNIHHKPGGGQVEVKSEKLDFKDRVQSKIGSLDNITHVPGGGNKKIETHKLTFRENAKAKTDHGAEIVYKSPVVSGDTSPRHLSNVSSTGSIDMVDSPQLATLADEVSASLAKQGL
UniProt Q8WWC4: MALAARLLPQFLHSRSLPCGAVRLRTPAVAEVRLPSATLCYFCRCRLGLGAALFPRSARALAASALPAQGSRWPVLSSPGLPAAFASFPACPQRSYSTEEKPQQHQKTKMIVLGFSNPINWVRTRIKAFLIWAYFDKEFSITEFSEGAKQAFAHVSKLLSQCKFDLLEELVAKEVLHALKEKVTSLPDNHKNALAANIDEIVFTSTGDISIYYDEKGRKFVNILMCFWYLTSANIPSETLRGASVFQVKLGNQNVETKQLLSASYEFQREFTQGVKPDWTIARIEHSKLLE
UniProt P45985: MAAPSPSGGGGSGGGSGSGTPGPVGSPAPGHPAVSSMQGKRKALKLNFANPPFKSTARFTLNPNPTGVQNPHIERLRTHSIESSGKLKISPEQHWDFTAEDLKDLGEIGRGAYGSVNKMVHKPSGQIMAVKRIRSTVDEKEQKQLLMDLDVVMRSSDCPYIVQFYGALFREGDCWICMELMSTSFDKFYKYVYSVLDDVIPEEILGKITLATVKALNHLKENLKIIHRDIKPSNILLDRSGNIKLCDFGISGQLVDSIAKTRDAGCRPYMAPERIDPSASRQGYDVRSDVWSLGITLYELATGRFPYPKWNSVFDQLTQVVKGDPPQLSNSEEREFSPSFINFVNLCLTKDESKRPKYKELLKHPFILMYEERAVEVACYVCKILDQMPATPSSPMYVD

Key:
Test in all cases: log2 fold change, soluble protein after heating vs DMSO (PISA); higher = thermal stabilisation; K562 cells, 10 uM, 30 min; active = over 0.2 and 3.5 SD of the protein, either way, in both replicates (recomputed)
erlotinib = compound: C#Cc1cccc(Nc2ncnc3cc(OCCOC)c(OCCOC)cc23)c1 [erlotinib]
Procedure, shortened: (§1)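 For each measurement, 10 μM compound was applied for 30 min to K562 cells at 2×10^6 cells/mL. Aliquots were heated for 3 min across 48°C-58°C, pooled, and extracted in PBS with 0.5% NP-40 at 4°C; the supernatant after 21,000xg for 90 min was soluble protein. This was quantified by TMTpro 16plex LC-MS/MS with channel sums equalised, and thermal stability was reported relative to control samples from duplicates, on a log2 fold-change scale.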

[1] = compound: C/C(=N\NC(=O)C1=CC(=CC=C1)S(=O)(=O)N2CCOCC2)/C3=C(C=CC(=C3)Cl)O
Procedure, shortened: as §1

[2] = compound: C1=CC(=C(C=C1Cl)C2=NC3=NC=CN=C3C(=N2)NC4=CC=NC=C4)F
Procedure, shortened: as §1

[3] = compound: C1=CC(=CC=C1C2=NC3=C(N2)C=C(C=C3)C(=O)N)OC4=CC=C(C=C4)Cl
Procedure, shortened: as §1

[4] = compound: C1=CC2=C(C=CC(=C2)/C=C\3/C(=O)NC(=NCC4=CC=CS4)S3)N=C1
Procedure, shortened: as §1

[5] = compound: C1=CC2=NC=CN=C2C=C1/C=C/3\C(=O)NC(=O)S3
Procedure, shortened: as §1

[6] = compound: C1=CC=C(C=C1)C2=NC(=C(N2)C3=CC=NC=C3)C4=CC(=C(C=C4)Cl)O
Procedure, shortened: as §1

[7] = compound: C1=CC=C2C(=C1)C3=NNC4=CC=CC(=C43)C2=O
Procedure, shortened: as §1

[8] = compound: C1CCN(C1)C(=O)NC2=CC=CC(=C2)NC3=NC=C(C(=N3)NCCC4=CN=CN4)Br
Procedure, shortened: as §1

[9] = compound: C1CN(CCC1(CC2=CC=C(C=C2)Cl)N)C3=NC=NC4=C3C=CN4
Procedure, shortened: as §1

Measured: log2 fold change

MACO1 (UniProt Q8N5G2)
inactive: erlotinib -0.064 | [1] 0.003 | [2] -0.038 | [3] 0.051 | [4] -0.022 | [5] -0.107 | [6] -0.008 | [7] 0.006 | [8] -0.076 | [9] -0.062

LUC7L2 (UniProt Q9Y383)
inactive: erlotinib -0.001 | [1] 0.122 | [2] 0.013 | [3] 0.098 | [4] -0.218 | [5] -0.031 | [6] 0.008 | [7] -0.143 | [8] -0.03 | [9] -0.072

LSR (UniProt Q86X29)
inactive: erlotinib 0.022 | [1] 0.022 | [2] -0.08 | [3] 0.002 | [4] -0.019 | [5] 0.019 | [6] -0.105 | [7] -0.114 | [8] -0.038 | [9] 0.073

MAGEC2 (UniProt Q9UBF1)
inactive: erlotinib -0.026 | [1] 0.024 | [2] -0.099 | [3] -0.018 | [4] -0.003 | [5] 0.03 | [6] -0.011 | [7] -0.004 | [8] -0.022 | [9] 0.051

MAPKAPK3 (UniProt Q16644)
active: [2] 0.431
inactive: erlotinib 0.034 | [1] -0.012 | [3] -0.041 | [4] 0.024 | [5] -0.069 | [6] 0.256 | [7] 0.029 | [8] 0.021 | [9] -0.054

MAP11 (UniProt Q8WVR3)
inactive: erlotinib 0.074 | [2] -0.098 | [3] 0.06 | [5] 0.049

MAGEC1 (UniProt O60732)
inactive: erlotinib 0.054 | [1] -0.017 | [2] -0.119 | [3] 0.002 | [4] -0.055 | [5] -0.068 | [6] -0.018 | [7] 0.014 | [8] -0.024 | [9] -0.099

LRRC8A (UniProt Q8IWT6)
inactive: erlotinib 0.034 | [1] -0.123 | [2] -0.172 | [3] 0.037 | [4] 0.048 | [5] 0.036 | [6] 0.004 | [7] 0.004 | [8] -0.068 | [9] -0.057

MAP3K20 isoform 2 (UniProt Q9NYL2)
inactive: erlotinib -0.002 | [1] -0.128 | [2] 0.051 | [3] 0.052 | [4] -0.091 | [7] -0.168 | [8] -0.004 | [9] 0.007

LRRC8D (UniProt Q7L1W4)
inactive: erlotinib -0.209 | [1] -0.046 | [2] -0.404 | [3] 0.005 | [4] -0.091 | [6] -0.043 | [7] 0.108 | [8] -0.222 | [9] -0.148

MARS (UniProt P56192)
inactive: erlotinib 0.026 | [1] -0.009 | [2] -0.044 | [3] 0.01 | [4] 0.048 | [5] 0.023 | [6] 0.001 | [7] -0.017 | [8] 0.019 | [9] -0.041

MAGEB1 (UniProt P43366)
inactive: erlotinib -0.078 | [1] -0.133 | [2] -0.515 | [3] 0.06 | [4] -0.016 | [5] 0.012 | [6] -0.058 | [7] 0.008 | [8] 0.08 | [9] -0.131

MAPK14 (UniProt Q16539)
inactive: erlotinib 0.238 | [1] 0.106 | [3] -0.116 | [4] -0.054 | [5] 0.001 | [7] 0.174 | [8] 0.051 | [9] -0.072
active: [6] 1.04

MAP4K4 isoform 3 (UniProt O95819)
active: [7] -0.316
inactive: erlotinib -0.057 | [1] 0.058 | [2] -0.047 | [3] 0.021 | [4] 0 | [5] 0.034 | [6] -0.069 | [8] -0.031 | [9] -0.012

LYN (UniProt P07948)
inactive: erlotinib -0.073 | [1] 0.044 | [2] -0.171 | [3] 0.007 | [4] 0.005 | [5] -0.028 | [6] -0.014 | [7] -0.253 | [8] 0.035 | [9] -0.015

LSG1 (UniProt Q9H089)
inactive: erlotinib 0.11 | [1] 0.019 | [2] -0.298 | [3] 0.065 | [4] -0.091 | [6] 0.028 | [7] 0.132 | [8] 0.072 | [9] -0.003

MANBA (UniProt O00462)
inactive: erlotinib 0.018 | [1] 0.013 | [2] 0.029 | [3] 0.011 | [4] 0.028 | [5] 0.033 | [6] -0.034 | [7] -0.018 | [8] 0.003 | [9] 0.036

MAP1S (UniProt Q66K74)
inactive: erlotinib -0.016 | [1] 0.099 | [2] 0.012 | [3] 0.001 | [4] -0.025 | [5] 0.01 | [6] 0.017 | [7] 0.005 | [8] 0.015 | [9] -0.059

LTV1 (UniProt Q96GA3)
inactive: erlotinib -0.079 | [1] -0.073 | [2] -0.275 | [3] 0.041 | [4] -0.037 | [5] 0.013 | [6] -0.055 | [7] 0.046 | [8] 0.143 | [9] -0.284

MAGED1 isoform 2 (UniProt Q9Y5V3)
inactive: erlotinib 0.024 | [1] 0.044 | [2] -0.311 | [3] -0.059 | [4] -0.064 | [7] -0.012

MAPT isoform 9 (UniProt P10636)
inactive: erlotinib 0.155 | [1] -0.072 | [2] -0.116 | [3] -0.003 | [4] -0.057 | [5] 0.063 | [7] -0.056

LYN isoform 2 (UniProt P07948)
inactive: erlotinib -0.387 | [1] 0.117 | [2] -0.234 | [3] -0.152 | [4] 0.146 | [7] -0.163

MAIP1 (UniProt Q8WWC4)
inactive: erlotinib -0.02 | [1] 0.006 | [2] -0.012 | [3] 0.002 | [4] 0.02 | [5] 0.042 | [6] 0.066 | [7] 0.037 | [8] -0.024 | [9] 0.012

MAP2K4 isoform 2 (UniProt P45985)
inactive: erlotinib -0.001 | [1] 0.024 | [2] 0.075 | [3] 0.037 | [4] 0.014 | [5] 0.028 | [6] -0.025 | [7] -0.052 | [8] -0.004 | [9] 0.045

Pulled one by one from above (two):
LSR (UniProt Q86X29)
inactive: erlotinib 0.022 | [1] 0.022 | [2] -0.08 | [3] 0.002 | [4] -0.019 | [5] 0.019 | [6] -0.105 | [7] -0.114 | [8] -0.038 | [9] 0.073

LYN (UniProt P07948)
inactive: erlotinib -0.073 | [1] 0.044 | [2] -0.171 | [3] 0.007 | [4] 0.005 | [5] -0.028 | [6] -0.014 | [7] -0.253 | [8] 0.035 | [9] -0.015
